The list shows a part of the results.

By UniProt entry, the sequences of proteins in these tests, tags left out. Where a name states a change or a piece, a line headed by the entry shows the natural chain unless it says otherwise.
UniProt Q8TDI8: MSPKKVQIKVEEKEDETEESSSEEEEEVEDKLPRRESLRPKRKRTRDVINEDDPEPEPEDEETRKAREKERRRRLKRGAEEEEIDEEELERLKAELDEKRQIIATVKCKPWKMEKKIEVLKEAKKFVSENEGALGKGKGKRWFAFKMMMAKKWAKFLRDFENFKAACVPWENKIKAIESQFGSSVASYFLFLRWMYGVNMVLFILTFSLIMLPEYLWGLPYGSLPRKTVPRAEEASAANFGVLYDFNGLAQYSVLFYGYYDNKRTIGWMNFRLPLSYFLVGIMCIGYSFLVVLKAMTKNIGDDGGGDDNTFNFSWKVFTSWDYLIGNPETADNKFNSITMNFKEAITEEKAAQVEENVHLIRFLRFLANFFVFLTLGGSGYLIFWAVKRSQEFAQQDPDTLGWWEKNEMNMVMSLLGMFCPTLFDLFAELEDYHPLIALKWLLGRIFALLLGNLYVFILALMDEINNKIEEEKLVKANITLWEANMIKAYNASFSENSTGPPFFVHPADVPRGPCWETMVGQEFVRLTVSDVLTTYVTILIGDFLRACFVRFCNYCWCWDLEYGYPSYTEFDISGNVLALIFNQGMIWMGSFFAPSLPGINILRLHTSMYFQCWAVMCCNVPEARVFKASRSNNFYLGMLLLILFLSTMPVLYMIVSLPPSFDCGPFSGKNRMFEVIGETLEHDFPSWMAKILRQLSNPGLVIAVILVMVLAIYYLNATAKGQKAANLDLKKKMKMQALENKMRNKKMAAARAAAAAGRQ
UniProt O43615: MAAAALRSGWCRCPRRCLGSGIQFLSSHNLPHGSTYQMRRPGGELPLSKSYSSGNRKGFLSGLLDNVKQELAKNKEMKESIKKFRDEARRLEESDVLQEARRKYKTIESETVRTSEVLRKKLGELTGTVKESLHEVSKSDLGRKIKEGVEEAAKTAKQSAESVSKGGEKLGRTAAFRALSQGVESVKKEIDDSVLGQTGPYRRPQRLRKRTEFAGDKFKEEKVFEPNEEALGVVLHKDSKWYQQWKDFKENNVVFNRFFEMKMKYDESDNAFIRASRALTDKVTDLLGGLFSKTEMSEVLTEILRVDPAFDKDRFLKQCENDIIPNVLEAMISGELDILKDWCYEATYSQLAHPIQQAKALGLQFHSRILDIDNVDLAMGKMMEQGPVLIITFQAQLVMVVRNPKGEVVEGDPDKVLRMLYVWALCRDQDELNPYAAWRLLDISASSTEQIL
UniProt Q13445: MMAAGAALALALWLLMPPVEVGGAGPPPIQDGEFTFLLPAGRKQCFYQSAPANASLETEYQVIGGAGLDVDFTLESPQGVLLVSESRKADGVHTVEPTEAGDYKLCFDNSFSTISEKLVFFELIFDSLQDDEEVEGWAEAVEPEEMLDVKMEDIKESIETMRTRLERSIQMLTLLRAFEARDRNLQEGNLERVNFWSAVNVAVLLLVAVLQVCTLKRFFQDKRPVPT
UniProt Q9BVV7: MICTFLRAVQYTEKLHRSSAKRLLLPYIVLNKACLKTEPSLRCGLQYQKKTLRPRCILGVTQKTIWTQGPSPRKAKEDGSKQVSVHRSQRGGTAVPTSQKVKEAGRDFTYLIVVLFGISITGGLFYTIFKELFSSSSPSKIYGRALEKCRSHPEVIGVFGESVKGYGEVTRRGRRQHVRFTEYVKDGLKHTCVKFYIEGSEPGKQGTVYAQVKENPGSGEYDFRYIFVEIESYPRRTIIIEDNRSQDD
UniProt Q96EK4, whole entry, looked up: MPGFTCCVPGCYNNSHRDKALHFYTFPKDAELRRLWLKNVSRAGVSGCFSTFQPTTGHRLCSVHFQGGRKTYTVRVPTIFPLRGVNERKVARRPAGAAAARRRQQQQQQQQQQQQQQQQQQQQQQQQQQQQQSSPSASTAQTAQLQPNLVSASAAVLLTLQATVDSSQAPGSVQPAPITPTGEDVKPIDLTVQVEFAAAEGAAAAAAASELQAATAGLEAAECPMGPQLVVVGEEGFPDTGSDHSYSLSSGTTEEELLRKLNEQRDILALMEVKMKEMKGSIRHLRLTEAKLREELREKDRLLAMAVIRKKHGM
UniProt Q6I9Y2: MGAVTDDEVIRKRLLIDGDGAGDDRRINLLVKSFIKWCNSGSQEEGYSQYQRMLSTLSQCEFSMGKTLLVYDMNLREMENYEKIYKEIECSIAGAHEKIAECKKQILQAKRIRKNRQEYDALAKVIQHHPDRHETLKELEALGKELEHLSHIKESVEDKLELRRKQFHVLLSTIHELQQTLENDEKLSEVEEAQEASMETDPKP
UniProt P04183: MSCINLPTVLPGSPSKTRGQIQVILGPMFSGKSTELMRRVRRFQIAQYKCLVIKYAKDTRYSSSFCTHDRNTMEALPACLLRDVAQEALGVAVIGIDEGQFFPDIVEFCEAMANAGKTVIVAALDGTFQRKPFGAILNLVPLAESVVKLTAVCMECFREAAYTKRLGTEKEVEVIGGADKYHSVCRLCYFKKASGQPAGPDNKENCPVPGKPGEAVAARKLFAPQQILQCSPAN
UniProt Q8TBQ9: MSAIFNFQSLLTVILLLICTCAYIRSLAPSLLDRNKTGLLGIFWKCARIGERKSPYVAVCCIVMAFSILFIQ
UniProt Q9P0S9: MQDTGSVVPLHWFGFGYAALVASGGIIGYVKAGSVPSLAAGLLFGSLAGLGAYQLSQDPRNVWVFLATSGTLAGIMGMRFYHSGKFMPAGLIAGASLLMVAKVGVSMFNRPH
UniProt Q8NDZ6: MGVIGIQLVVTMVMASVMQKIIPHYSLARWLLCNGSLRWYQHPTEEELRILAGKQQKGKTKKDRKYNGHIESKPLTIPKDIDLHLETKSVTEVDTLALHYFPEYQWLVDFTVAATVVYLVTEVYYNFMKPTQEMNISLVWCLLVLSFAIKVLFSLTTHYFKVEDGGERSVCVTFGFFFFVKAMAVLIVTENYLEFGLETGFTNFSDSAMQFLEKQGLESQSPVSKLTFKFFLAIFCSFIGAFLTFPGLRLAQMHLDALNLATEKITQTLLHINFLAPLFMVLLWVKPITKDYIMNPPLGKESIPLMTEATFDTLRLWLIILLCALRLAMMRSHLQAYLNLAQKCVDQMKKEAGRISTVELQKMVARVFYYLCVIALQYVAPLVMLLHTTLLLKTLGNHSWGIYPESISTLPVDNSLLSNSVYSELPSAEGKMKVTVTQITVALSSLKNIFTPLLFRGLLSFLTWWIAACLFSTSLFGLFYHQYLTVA
UniProt Q96AN5: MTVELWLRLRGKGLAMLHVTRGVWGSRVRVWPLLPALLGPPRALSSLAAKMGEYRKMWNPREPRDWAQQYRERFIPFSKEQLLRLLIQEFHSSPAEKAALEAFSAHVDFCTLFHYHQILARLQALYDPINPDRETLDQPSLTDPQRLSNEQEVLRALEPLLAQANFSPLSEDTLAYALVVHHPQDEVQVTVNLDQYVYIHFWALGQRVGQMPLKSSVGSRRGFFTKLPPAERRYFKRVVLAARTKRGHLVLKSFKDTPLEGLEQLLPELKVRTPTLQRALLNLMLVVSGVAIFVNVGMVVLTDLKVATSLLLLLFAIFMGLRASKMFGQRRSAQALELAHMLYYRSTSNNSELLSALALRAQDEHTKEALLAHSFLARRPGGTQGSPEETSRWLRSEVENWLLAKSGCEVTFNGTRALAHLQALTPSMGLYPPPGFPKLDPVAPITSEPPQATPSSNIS
UniProt Q9NR96: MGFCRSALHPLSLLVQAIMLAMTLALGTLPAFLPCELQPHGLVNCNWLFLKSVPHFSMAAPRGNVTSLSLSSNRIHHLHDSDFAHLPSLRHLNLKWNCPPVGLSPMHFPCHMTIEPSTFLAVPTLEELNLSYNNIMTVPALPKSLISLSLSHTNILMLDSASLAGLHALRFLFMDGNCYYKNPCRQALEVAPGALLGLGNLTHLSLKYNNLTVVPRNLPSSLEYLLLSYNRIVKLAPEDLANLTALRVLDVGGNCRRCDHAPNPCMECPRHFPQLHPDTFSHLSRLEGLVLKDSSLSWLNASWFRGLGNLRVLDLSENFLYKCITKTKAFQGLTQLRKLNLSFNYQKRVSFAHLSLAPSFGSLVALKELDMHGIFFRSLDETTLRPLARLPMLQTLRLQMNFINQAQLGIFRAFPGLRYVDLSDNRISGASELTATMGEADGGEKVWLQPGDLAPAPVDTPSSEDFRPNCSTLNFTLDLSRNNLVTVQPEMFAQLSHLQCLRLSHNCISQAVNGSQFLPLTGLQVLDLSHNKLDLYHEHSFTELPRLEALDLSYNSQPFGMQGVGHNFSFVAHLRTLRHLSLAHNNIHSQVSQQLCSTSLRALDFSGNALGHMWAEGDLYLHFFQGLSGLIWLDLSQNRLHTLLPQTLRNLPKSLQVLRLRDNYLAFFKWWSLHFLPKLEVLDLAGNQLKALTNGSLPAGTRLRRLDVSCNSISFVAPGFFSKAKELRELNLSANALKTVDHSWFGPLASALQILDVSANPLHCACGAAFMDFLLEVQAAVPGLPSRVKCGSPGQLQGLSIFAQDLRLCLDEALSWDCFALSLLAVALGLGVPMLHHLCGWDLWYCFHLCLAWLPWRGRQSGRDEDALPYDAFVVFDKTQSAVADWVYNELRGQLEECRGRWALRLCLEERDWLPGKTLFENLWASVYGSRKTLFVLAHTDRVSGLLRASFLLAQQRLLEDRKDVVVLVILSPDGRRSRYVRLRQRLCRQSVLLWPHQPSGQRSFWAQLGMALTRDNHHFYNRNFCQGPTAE
UniProt P21980: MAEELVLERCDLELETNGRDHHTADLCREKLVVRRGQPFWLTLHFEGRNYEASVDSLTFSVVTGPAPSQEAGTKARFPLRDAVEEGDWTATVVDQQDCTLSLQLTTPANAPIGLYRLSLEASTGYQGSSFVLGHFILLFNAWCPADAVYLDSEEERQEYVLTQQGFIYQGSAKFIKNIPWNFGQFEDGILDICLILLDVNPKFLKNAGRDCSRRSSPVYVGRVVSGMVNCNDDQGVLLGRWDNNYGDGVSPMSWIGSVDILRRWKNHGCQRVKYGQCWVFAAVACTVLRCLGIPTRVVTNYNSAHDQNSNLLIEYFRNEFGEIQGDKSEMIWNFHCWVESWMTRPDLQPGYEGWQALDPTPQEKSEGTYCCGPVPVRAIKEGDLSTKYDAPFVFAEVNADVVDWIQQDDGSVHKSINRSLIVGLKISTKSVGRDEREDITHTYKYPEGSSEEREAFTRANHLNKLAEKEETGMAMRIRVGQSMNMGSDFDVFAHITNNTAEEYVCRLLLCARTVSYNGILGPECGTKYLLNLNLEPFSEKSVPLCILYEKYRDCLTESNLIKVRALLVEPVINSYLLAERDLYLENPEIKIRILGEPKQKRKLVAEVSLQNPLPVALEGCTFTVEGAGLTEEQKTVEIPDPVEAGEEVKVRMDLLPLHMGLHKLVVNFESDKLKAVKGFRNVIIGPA
UniProt P62072: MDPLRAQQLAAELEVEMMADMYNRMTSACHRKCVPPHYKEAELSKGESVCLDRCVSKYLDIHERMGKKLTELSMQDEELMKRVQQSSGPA
UniProt Q96I45: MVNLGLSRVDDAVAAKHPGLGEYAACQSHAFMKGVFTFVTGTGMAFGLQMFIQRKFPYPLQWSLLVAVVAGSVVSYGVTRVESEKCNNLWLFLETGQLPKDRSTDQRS
UniProt Q7Z7H5: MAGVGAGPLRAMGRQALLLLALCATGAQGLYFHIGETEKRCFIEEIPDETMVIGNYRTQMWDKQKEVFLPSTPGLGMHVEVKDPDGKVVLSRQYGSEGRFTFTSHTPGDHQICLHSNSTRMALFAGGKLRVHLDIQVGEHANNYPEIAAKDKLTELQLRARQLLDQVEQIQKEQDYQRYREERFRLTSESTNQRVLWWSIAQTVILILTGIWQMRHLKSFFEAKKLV
UniProt O43493: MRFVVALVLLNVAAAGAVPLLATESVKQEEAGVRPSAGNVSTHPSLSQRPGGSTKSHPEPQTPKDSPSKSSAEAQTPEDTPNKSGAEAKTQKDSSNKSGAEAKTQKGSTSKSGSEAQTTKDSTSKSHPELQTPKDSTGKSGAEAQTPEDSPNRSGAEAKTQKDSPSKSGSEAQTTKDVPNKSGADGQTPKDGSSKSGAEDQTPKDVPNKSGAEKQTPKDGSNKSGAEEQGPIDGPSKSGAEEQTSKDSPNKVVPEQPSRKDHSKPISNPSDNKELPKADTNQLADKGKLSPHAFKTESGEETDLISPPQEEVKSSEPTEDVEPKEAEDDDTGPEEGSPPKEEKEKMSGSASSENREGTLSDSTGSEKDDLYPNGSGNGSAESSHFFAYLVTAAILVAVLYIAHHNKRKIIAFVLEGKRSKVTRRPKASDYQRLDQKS
UniProt Q01085: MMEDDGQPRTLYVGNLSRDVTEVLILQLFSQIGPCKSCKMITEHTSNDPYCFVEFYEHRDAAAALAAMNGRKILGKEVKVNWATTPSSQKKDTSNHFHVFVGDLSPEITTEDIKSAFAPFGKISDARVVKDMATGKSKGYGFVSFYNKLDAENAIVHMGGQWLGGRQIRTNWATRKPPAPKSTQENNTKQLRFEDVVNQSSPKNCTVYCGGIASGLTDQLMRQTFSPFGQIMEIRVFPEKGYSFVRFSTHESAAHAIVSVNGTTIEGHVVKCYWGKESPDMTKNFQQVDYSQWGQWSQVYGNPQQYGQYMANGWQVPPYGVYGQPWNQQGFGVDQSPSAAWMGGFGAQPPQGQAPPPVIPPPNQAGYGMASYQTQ

Here are results for 34 targets from the supplement of paper PMC10849652.

Compound in one assay: COc1cc(Nc2ncc3c(n2)-c2ccc(Cl)cc2C(c2c(F)cccc2OC)=NC3)ccc1C(=O)O [alisertib]
Briefly: log2 fold change, soluble protein after heating vs DMSO (PISA); higher = thermal stabilisation; K562 lysate, 10 uM; active = over 0.2 and 3.5 SD of the protein, either way, in both replicates (recomputed). In a few lines:
(§1)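 A 30 min treatment with 10 μM compound was applied to crude K562 extract at 1 mg/mL protein in PBS pH 7.4 with 1 mM MgCl2. Heating for 3 min spanned 48°C-58°C, after which aliquots were pooled, adjusted to 0.5% NP-40 at 4°C and spun at 21,000xg for 90 min. TMTpro 16plex LC-MS/MS of the supernatant, with channel sums equalised, gave values recorded as log-two fold change in thermal stability against solvent controls, from duplicates.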
Turning to TMEM160 (UniProt Q9NX00), the log2 fold change is inactive: 0.102.

With TMC1 (UniProt Q8TDI8), the log2 fold change is inactive: 0.216.

On to TIMM44 (UniProt O43615), for which the log2 fold change is inactive: 0.082.

As to TK1 (UniProt K7ERV3), the log2 fold change was inactive: -0.283.

TIMM13 (UniProt Q9Y5L4): the log2 fold change was inactive: 0.012.

On to TMED1 (UniProt Q13445), for which the log2 fold change is inactive: -0.051.

As to TMEM123 (UniProt Q8N131), the log2 fold change is inactive: 0.023.

For TIMM21 (UniProt Q9BVV7), the log2 fold change was inactive: 0.07.

As for TMC6 (UniProt Q7Z403), the log2 fold change is inactive: -0.052.

On to THAP11 (UniProt Q96EK4), for which the log2 fold change was inactive: 0.044.

As to THOC7 (UniProt Q6I9Y2), the log2 fold change is inactive: -0.016.

On to TKFC (UniProt Q3LXA3), for which the log2 fold change was inactive: 0.02.

Turning to TK1 (UniProt P04183), the log2 fold change is inactive: -0.002.

For TMEM167A (UniProt Q8TBQ9), the log2 fold change is inactive: 0.013.

Turning to TMEM14C (UniProt Q9P0S9), the log2 fold change was inactive: -0.011.

As to TJP1 (UniProt G3V1L9), the log2 fold change is inactive: -0.079.

Regarding TMEM161B (UniProt Q8NDZ6), the log2 fold change is inactive: -0.222.

As for TMEM143 (UniProt Q96AN5), the log2 fold change was inactive: -0.204.

Take TLR9 isoform 4 (UniProt Q9NR96): the log2 fold change was inactive: 0.067.

For TGM2 (UniProt P21980), the log2 fold change is inactive: -0.008.

As for TIMM10 (UniProt P62072), the log2 fold change was inactive: 0.036.

Consider TMEM141 (UniProt Q96I45), for which the log2 fold change is inactive: -0.079.

For TMED4 (UniProt Q7Z7H5), the log2 fold change was inactive: 0.015.

TM9SF1 (UniProt O15321): the log2 fold change is inactive: 0.032.

In the case of TMEM167B (UniProt Q9NRX6), the log2 fold change is inactive: 0.012.

Turning to TKT isoform 2 (UniProt P29401), the log2 fold change is inactive: 0.006.

TGOLN2 isoform 7 (UniProt O43493): the log2 fold change was inactive: -0.059.

For TIAL1 isoform 2 (UniProt Q01085), the log2 fold change is inactive: 0.027.

Compound in a further assay: COc1cc2nc(-c3cc(F)ccc3O)nc(N[C@@H]3CNC[C@H]3C(C)(C)O)c2cc1OC
The assay is described as above. Put shortly:
as §1
Turning to TMEM160 (UniProt Q9NX00), the log2 fold change was inactive: -0.007.

For TMC1 (UniProt Q8TDI8), the log2 fold change is inactive: 0.021.

Take TIMM44 (UniProt O43615): the log2 fold change is inactive: -0.04.

With TK2 isoform 6 (UniProt O00142), the log2 fold change is inactive: -0.069.

With THAP9 (UniProt Q9H5L6), the log2 fold change is inactive: 0.179.

Regarding TIMM13 (UniProt Q9Y5L4), the log2 fold change was inactive: 0.012.

Regarding TMED1 (UniProt Q13445), the log2 fold change is inactive: -0.014.

For TMEM123 (UniProt Q8N131), the log2 fold change is inactive: -0.022.

Consider TIMM21 (UniProt Q9BVV7), for which the log2 fold change is inactive: -0.023.

Consider TMEM120B (UniProt A0PK00), for which the log2 fold change is inactive: 0.023.

TMC6 (UniProt Q7Z403): the log2 fold change is inactive: -0.176.

With TM6SF1 (UniProt Q9BZW5), the log2 fold change was inactive: 0.004.

In the case of THAP11 (UniProt Q96EK4), the log2 fold change is inactive: 0.099.

For THOC7 (UniProt Q6I9Y2), the log2 fold change was inactive: -0.021.

As to TKFC (UniProt Q3LXA3), the log2 fold change is inactive: 0.001.

As to TMEM181 (UniProt Q9P2C4), the log2 fold change was inactive: 0.008.

Turning to TK1 (UniProt P04183), the log2 fold change is inactive: 0.017.

With TMEM167A (UniProt Q8TBQ9), the log2 fold change is inactive: -0.037.

Take TMEM14C (UniProt Q9P0S9): the log2 fold change was inactive: -0.168.

Consider TMEM161B (UniProt Q8NDZ6), for which the log2 fold change is inactive: 0.033.

In the case of TMEM143 (UniProt Q96AN5), the log2 fold change is inactive: -0.058.

TLR9 isoform 4 (UniProt Q9NR96): the log2 fold change is inactive: 0.009.

Regarding TMEM177 (UniProt Q53S58), the log2 fold change was inactive: 0.002.

With TGM2 (UniProt P21980), the log2 fold change was inactive: 0.002.

On to TIMM10 (UniProt P62072), for which the log2 fold change is inactive: -0.028.

TMEM141 (UniProt Q96I45): the log2 fold change was inactive: -0.036.

Take TMED4 (UniProt Q7Z7H5): the log2 fold change is inactive: 0.002.

Take TM9SF1 (UniProt O15321): the log2 fold change was inactive: 0.002.

In the case of TMEM167B (UniProt Q9NRX6), the log2 fold change was inactive: 0.032.

Turning to TKT isoform 2 (UniProt P29401), the log2 fold change is inactive: 0.013.

For the target TGOLN2 isoform 7 (UniProt O43493), the log2 fold change was inactive: 0.02.

In the case of TIAL1 isoform 2 (UniProt Q01085), the log2 fold change was inactive: 0.013.

Compound in another assay: COc1cc2ncnc(Nc3ccc(F)c(Cl)c3)c2cc1OCCCN1CCOCC1 [gefitinib]
Described as above. Put shortly:
as §1
In the case of TMEM160 (UniProt Q9NX00), the log2 fold change was inactive: 0.023.

In the case of TMC1 (UniProt Q8TDI8), the log2 fold change was inactive: 0.215.

For the target TIMM44 (UniProt O43615), the log2 fold change was inactive: 0.017.

Consider TK1 (UniProt K7ERV3), for which the log2 fold change was inactive: 0.214.

Take TIMM13 (UniProt Q9Y5L4): the log2 fold change is inactive: -0.072.

As to TMED1 (UniProt Q13445), the log2 fold change was inactive: 0.037.

As to TMEM123 (UniProt Q8N131), the log2 fold change is inactive: 0.023.

TIMM21 (UniProt Q9BVV7): the log2 fold change is inactive: 0.005.

Turning to TMC6 (UniProt Q7Z403), the log2 fold change was inactive: 0.03.

As to THAP11 (UniProt Q96EK4), the log2 fold change was inactive: 0.031.

Take THOC7 (UniProt Q6I9Y2): the log2 fold change was inactive: 0.025.

TKFC (UniProt Q3LXA3): the log2 fold change is inactive: -0.028.

TK1 (UniProt P04183): the log2 fold change is inactive: 0.013.

On to TMEM167A (UniProt Q8TBQ9), for which the log2 fold change was inactive: -0.045.

For the target TMEM14C (UniProt Q9P0S9), the log2 fold change was inactive: 0.003.

TJP1 (UniProt G3V1L9): the log2 fold change was inactive: -0.215.

With TMEM161B (UniProt Q8NDZ6), the log2 fold change was inactive: -0.008.

Turning to TMEM143 (UniProt Q96AN5), the log2 fold change is inactive: -0.227.

Consider TLR9 isoform 4 (UniProt Q9NR96), for which the log2 fold change was inactive: -0.027.

TGM2 (UniProt P21980): the log2 fold change was inactive: -0.014.

Consider TIMM10 (UniProt P62072), for which the log2 fold change was inactive: 0.005.

Turning to TMEM141 (UniProt Q96I45), the log2 fold change is inactive: 0.077.

For the target TMED4 (UniProt Q7Z7H5), the log2 fold change was inactive: -0.011.

For TM9SF1 (UniProt O15321), the log2 fold change is inactive: 0.03.

Consider TMEM167B (UniProt Q9NRX6), for which the log2 fold change was inactive: 0.032.

With TKT isoform 2 (UniProt P29401), the log2 fold change was inactive: -0.017.

Take TGOLN2 isoform 7 (UniProt O43493): the log2 fold change is inactive: -0.048.

TIAL1 isoform 2 (UniProt Q01085): the log2 fold change was inactive: 0.041.
